Positions count from the first letter of the chain named. These are yes or no findings as the source states them, for the method shown. Some entries that bind do so weakly or less than the wild type.

Amino acid sequences for entries named in this document (tags omitted).
UniProt Q12904: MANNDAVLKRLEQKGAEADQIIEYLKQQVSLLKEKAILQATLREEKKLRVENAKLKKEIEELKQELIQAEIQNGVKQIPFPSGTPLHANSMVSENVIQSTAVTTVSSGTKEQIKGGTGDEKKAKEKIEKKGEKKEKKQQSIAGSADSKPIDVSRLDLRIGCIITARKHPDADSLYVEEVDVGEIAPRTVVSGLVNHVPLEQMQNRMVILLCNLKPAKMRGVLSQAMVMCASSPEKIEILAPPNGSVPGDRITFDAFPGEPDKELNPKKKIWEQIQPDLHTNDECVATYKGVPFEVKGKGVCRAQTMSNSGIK

We go through four molecules from patent US20230287095A1.

B1: Humanized HC4 + LC1 (antibody, human IgG1, kappa, V domains shown)
VH: EVQLVESGGGLVQPGGSLKLSCAASGFTFSDAAIYWVRQASGKGLEWVARIRTKPNNYATYYAASVKGRFTISRDDSNSTAYLQMNSLKTEDTAVYYCTSWSYDFDYWGQGTLVTVSS
VL: DIVMTQSPLSLPVTPGEPASISCRSSKSLLHSSGKTYLNWYLQKPGQSPQLLIYWMSNRASGVPDRFSGSGSGTDFTLKISRVEAEDVGVYYCQQFLEYPLTFGQGTKLEIKR
B2: Humanized HC1 + LC1 (antibody, human IgG1, kappa, V domains shown)
VH: B1 VH with I34M, A49G, N78K, S79N
VL: B1 VL
B3: Humanized HC5 + LC1 (antibody, human IgG1, kappa, V domains shown)
VH: B1 VH with E1A, I34M
VL: B1 VL
B4: Chimeric Parental (antibody, V domains shown)
VH: AVHLVESGGGFVQPTESLKISCAASGFTFSDAAMYWVRQAPGKGLEWVARIRTKPNNYATYYADSVKGRFTISRDDSKSMVYLQMDNLKTEDTAMYYCTSWSYDFDYWGQGVMVTVSS
VL: DIVMTQGALPNPVPSGESASITCQSSKSLLHSSGKTYLNWYLQRPGQSPHLLIYWMSTRASGVSDRLSGSGSGTDFTLKISSVEAEDVGVYYCQQFLEYPLTFGSGTKLEIK

The target of the test is human pro-EMAPII (human) (UniProt Q12904). The test can be described thus: ELISA, plate coated with human pro-EMAPII.
Consider B1, for which the binding result was “binds”. Under B2 stands “binds”. Under B3 stands “binds”. Take B4: the binding entry was “binds”.
